Results deposited as PubChem BioAssay AID1159578 (Peter MacCallum Cancer Centre, 2015).

- Test: 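Knock-downs that alter how fast lymphatic endothelial cells migrate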 (primary screen)
- System: human lymphatic endothelial cells
- Knock-down reagent: siRNA pool against human genes, 40 nM
- Time to read-out: 48 h after transfection
- Measurement: 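Cells stained with dye and imaged after a scratch; covered wound area and nuclei counted, duplicates averaged, migration set against mock wells and turned into a robust z-score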
- Direction: migration robust z-score: higher = faster migration into the scratch; migration relative to mock: higher = more scratch area covered than mock; nuclei per well: higher = more cells in the well
- Rule for the call: 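Pools averaging fewer than 3300 nuclei are never called; remaining pools count as changed when migration robust z lies outside -2 to 2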
- Meaning of the calls: active = migration changed; inactive = no migration change, or too few cells
The whole screen tested about 18,000 reagents; shown is an unselected part. About 1,030 of all reagents (5.7%) were called active. 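Inactive calls also include pools with fewer than 3300 nuclei, whose migration was not assessed.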 Raw values are not corrected between plates.

The opening 3 records, to show the layout:
gene symbol	migration robust z-score	migration class with cell-count check	migration relative to mock	nuclei per well, duplicate mean	activity call
MIS18BP1 (GeneID 55320)	0.86	migration z between -2 and 2; enough cells	1.1	6734	inactive
MAGEA5P (GeneID 4104)	2.06	migration z above 2; enough cells	1.42	5430	active
KRTAP5-9 (GeneID 3846)	-1.94	migration z between -2 and 2; enough cells	0.43	4864	inactive

Main list, repeating the preview:
gene symbol	migration robust z-score	migration class with cell-count check	migration relative to mock	nuclei per well, duplicate mean	activity call
MIS18BP1 (GeneID 55320)	0.86	migration z between -2 and 2; enough cells	1.1	6734	inactive
MAGEA5P (GeneID 4104)	2.06	migration z above 2; enough cells	1.42	5430	active
KRTAP5-9 (GeneID 3846)	-1.94	migration z between -2 and 2; enough cells	0.43	4864	inactive
NPHS1 (GeneID 4868)	0.82	migration z between -2 and 2; enough cells	1.09	6256	inactive
STUM (GeneID 375057)	-3.81	under 3300 nuclei; migration not judged	-0.08	2722	inactive
OR2T2 (GeneID 401992)	-4.24	under 3300 nuclei; migration not judged	-0.22	1904	inactive
ZNF425 (GeneID 155054)	-0.14	migration z between -2 and 2; enough cells	0.85	4678	inactive
FXN (GeneID 2395)	-0.2	migration z between -2 and 2; enough cells	0.76	6947	inactive
BEST4 (GeneID 266675)	-0.62	migration z between -2 and 2; enough cells	0.72	7286	inactive
ENOX2 (GeneID 10495)	-1.12	migration z between -2 and 2; enough cells	0.6	6997	inactive
TAF8 (GeneID 129685)	-0.42	migration z between -2 and 2; enough cells	0.78	6606	inactive
TSPAN10 (GeneID 83882)	-0.45	migration z between -2 and 2; enough cells	0.77	6430	inactive
ZNF708 (GeneID 7562)	0.18	migration z between -2 and 2; enough cells	0.94	7220	inactive
COQ4 (GeneID 51117)	0.41	migration z between -2 and 2; enough cells	0.99	4960	inactive
P2RY8 (GeneID 286530)	-0.47	migration z between -2 and 2; enough cells	0.72	5490	inactive
GLRA3 (GeneID 8001)	1.12	migration z between -2 and 2; enough cells	1.02	4632	inactive
FMO3 (GeneID 2328)	0.62	migration z between -2 and 2; enough cells	0.92	5628	inactive
PTCHD1 (GeneID 139411)	-0.24	migration z between -2 and 2; enough cells	0.82	5802	inactive
AMFR (GeneID 267)	0.08	migration z between -2 and 2; enough cells	0.82	5494	inactive
PSPHP1 (GeneID 8781)	-0.31	migration z between -2 and 2; enough cells	0.74	5816	inactive
ZNF319 (GeneID 57567)	-2.46	migration z below -2; enough cells	0.25	4682	active
ASB6 (GeneID 140459)	-1.01	migration z between -2 and 2; enough cells	0.61	4356	inactive
FZD8 (GeneID 8325)	-1.02	migration z between -2 and 2; enough cells	0.61	4454	inactive
BAGE2 (GeneID 85319)	-1.19	migration z between -2 and 2; enough cells	0.58	5823	inactive
GPR146 (GeneID 115330)	-0.16	migration z between -2 and 2; enough cells	0.78	4693	inactive
NUDT21 (GeneID 11051)	1.18	migration z between -2 and 2; enough cells	1.19	5260	inactive
SENP1 (GeneID 29843)	1.17	migration z between -2 and 2; enough cells	1.03	5465	inactive
ENTHD1 (GeneID 150350)	0.57	migration z between -2 and 2; enough cells	1.04	5696	inactive
ZC3H4 (GeneID 23211)	2.27	migration z above 2; enough cells	1.48	5852	active
FUT6 (GeneID 2528)	-1.34	migration z between -2 and 2; enough cells	0.54	5522	inactive
DIS3L2 (GeneID 129563)	2.23	migration z above 2; enough cells	1.24	5926	active
EPM2A (GeneID 7957)	-0.18	migration z between -2 and 2; enough cells	0.77	5386	inactive
CTSC (GeneID 1075)	0.99	migration z between -2 and 2; enough cells	1	5688	inactive
BCAT1 (GeneID 586)	-0.8	migration z between -2 and 2; enough cells	0.65	5494	inactive
ACAA2 (GeneID 10449)	-1.5	migration z between -2 and 2; enough cells	0.52	6187	inactive
ISG20L2 (GeneID 81875)	0.47	migration z between -2 and 2; enough cells	0.9	6494	inactive
GATB (GeneID 5188)	1.2	migration z between -2 and 2; enough cells	1.03	6496	inactive
NUAK1 (GeneID 9891)	-0.29	migration z between -2 and 2; enough cells	0.75	5380	inactive
PSKH1 (GeneID 5681)	-0.6	migration z between -2 and 2; enough cells	0.69	5662	inactive
AP4E1 (GeneID 23431)	0.02	migration z between -2 and 2; enough cells	0.9	5661	inactive
HSPA1L (GeneID 3305)	0.99	under 3300 nuclei; migration not judged	1	3284	inactive
WNT3 (GeneID 7473)	0.62	migration z between -2 and 2; enough cells	1.04	5831	inactive
OGFOD3 (GeneID 79701)	-1.12	migration z between -2 and 2; enough cells	0.59	4764	inactive
SLC5A9 (GeneID 200010)	1.02	migration z between -2 and 2; enough cells	1.15	5860	inactive
OR5L1 (GeneID 219437)	2.7	migration z above 2; enough cells	1.58	6494	active
FUCA1 (GeneID 2517)	1.19	migration z between -2 and 2; enough cells	1.04	4704	inactive
INSR (GeneID 3643)	-0.36	migration z between -2 and 2; enough cells	0.74	5986	inactive
AGTRAP (GeneID 57085)	0.15	migration z between -2 and 2; enough cells	0.92	5394	inactive
NEK4 (GeneID 6787)	-1.04	migration z between -2 and 2; enough cells	0.6	7861	inactive
TMEM267 (GeneID 64417)	0.03	migration z between -2 and 2; enough cells	0.89	6466	inactive
NEIL1 (GeneID 79661)	-0.38	migration z between -2 and 2; enough cells	0.73	7374	inactive
SPHAR (retired record) (GeneID 10638)	1	migration z between -2 and 2; enough cells	1.14	5140	inactive
ALKBH8 (GeneID 91801)	0.69	migration z between -2 and 2; enough cells	1.06	5946	inactive
KDR (GeneID 3791)	-2.93	migration z below -2; enough cells	0.24	3695	active
RGPD7 (retired record) (GeneID 652919)	-0.12	migration z between -2 and 2; enough cells	0.85	6820	inactive
SFN (GeneID 2810)	0.05	migration z between -2 and 2; enough cells	0.9	6218	inactive
IL17D (GeneID 53342)	-1.04	migration z between -2 and 2; enough cells	0.62	4881	inactive
